From PubChem BioAssay AID2685 (National Center for Advancing Translational Sciences (NCATS), 2010)
The list shows a part of the results. Further columns of the screen follow, without active or inactive calls. Compounds called inactive in the main read-out are mostly missing here. Words in brackets tell the shape of the fitted curve; partial curves, single points and poor fits give uncertain potencies.

Assay: qHTS Assay for Lipid Storage Modulators in Drosophila S3 Cells;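 as to cell number change: cells counted by Cell Tracker Red CMTPX staining in the red channel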
Conditions: BODIPY lipid droplet fluorescence, 18-24 h; for cell number change: measured here: cell count max response, cells fed with added oleic acid
How it was run: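 Laser-scanning cytometry quantifies lipid droplet accumulation (500–530 nm total intensity; droplet/cell object ratio) in oleic acid-fed (400 uM added) Drosophila S3 cells treated with a concentration series. 20 uM Triacsin C defined 100% inhibition.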

[1] = measured here: lipid fluorescence (Fed channel) AC50, cells fed with added oleic acid
[2] = measured here: cell number channel AC50, cells fed with added oleic acid

Row | SMILES | cell number change | AC50 [1] | AC50 [2]
1 | COc1cccc(CNS(=O)(=O)c2ccc(-n3cnnn3)c(C)c2)c1 | 6.41% | 0.116 µM [falling, single point] | 
2 | Cc1ccc(NS(=O)(=O)c2c(C)[nH]c(=O)[nH]c2=O)cc1F | 27% | 16.4 µM [rising, partial curve] | 
3 | S=c1[nH]nc(-c2ccco2)n1/N=C/c1cccs1 | -22.4% | 18.4 µM [falling, single point] | 
4 | CC(=O)Nc1ccc(C(=O)OCc2ccc(Br)cc2)cc1 | -32.5% |  | 29.1 µM [falling, single point]
5 | CCOc1ccc(C(C(=O)NCC2CCCO2)N(C(=O)c2snc(C(N)=O)c2N)c2ccccc2F)cc1 (configuration not stated) | -8.97% |  | 
6 | CCOC(=O)c1ccccc1NC(=O)CN(c1ccccc1OC)S(C)(=O)=O | 6.26% | 29.1 µM [rising, single point] | 
7 | C=CCOC(=O)c1ccc(-n2cnc(C)n2)nc1 | -40.3% |  | 29.1 µM [falling, single point]
8 | O=C1c2ccccc2C(Nc2ccccc2)N1c1ccc(Cl)cn1 (configuration not stated) |  | 29.1 µM [rising, partial curve, poor fit] | 2.31 µM [rising, partial curve]
9 | CC1CN(S(=O)(=O)c2ccc(C(=O)Nc3nnc(-c4ccco4)o3)cc2)CC(C)O1 (configuration not stated) | 22.4% | 1.46 µM [rising, full curve] | 
10 | O=C(CSC(=S)N1CCCC1)NCCc1ccccc1 | 6.92% | 6.51 µM [rising, single point] | 
11 | COc1ccc(Oc2ncc(CN3CCN(c4ccccc4)CC3)s2)cc1 |  | 29.1 µM [falling, single point] | 6.51 µM [falling, single point]
12 | Cc1ccccc1OCC(=O)OCC(=O)Nc1cc(S(C)(=O)=O)ccc1Cl | -19.2% |  | 
13 | CCCCNC(=O)c1oc2ccc(S(=O)(=O)N3CCCC3)cc2c1C | -6.52% |  | 
14 | CN(C)CCCN1C(=O)C(=O)/C(=C(/O)c2ccncc2)C1c1cccnc1 (configuration not stated) | -3.39% | 3.26 µM [falling, single point] | 
15 | CC(=O)Nc1ccc(NC(=O)COC(=O)Cc2c[nH]c3ccccc23)cc1 | -26% | 5.17 µM [falling, partial curve, poor fit] | 
16 | Cc1cc(C(=O)CSc2nncn2C)c(C)n1-c1ccccc1 | 9.71% |  | 
17 | CCN(CC)N=Nc1[nH]nc2nc(C)cc(C)c12 | 7.13% | 0.00461 µM [rising, full curve, poor fit] | 
18 | Cc1[nH]c(C)c(S(=O)(=O)N(C)Cc2ccccc2)c1C(=O)N1CCCC1 | -7.91% | 29.1 µM [rising, single point] | 
